± gives the standard deviation of the averaged measurements. The list shows a part of the results, in another mix than the full data.

Sequences of proteins named here, by UniProt entry; tags and fusion partners are left off. A change or cut given only in a name is not applied to a line headed by its entry.
UniProt Q99704: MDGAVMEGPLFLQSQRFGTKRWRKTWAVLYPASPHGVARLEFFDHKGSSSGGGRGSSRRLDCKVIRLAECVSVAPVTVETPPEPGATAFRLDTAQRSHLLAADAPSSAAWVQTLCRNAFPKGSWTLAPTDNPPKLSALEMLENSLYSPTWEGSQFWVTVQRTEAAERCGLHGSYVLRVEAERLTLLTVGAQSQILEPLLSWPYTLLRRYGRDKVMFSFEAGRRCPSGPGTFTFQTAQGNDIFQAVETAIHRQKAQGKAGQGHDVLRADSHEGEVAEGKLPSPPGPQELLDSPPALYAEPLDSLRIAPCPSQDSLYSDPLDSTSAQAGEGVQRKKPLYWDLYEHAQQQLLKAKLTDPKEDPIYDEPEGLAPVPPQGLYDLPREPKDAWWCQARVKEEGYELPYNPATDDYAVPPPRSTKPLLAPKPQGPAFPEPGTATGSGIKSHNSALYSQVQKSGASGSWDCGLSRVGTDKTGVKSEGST
UniProt Q9BWH6: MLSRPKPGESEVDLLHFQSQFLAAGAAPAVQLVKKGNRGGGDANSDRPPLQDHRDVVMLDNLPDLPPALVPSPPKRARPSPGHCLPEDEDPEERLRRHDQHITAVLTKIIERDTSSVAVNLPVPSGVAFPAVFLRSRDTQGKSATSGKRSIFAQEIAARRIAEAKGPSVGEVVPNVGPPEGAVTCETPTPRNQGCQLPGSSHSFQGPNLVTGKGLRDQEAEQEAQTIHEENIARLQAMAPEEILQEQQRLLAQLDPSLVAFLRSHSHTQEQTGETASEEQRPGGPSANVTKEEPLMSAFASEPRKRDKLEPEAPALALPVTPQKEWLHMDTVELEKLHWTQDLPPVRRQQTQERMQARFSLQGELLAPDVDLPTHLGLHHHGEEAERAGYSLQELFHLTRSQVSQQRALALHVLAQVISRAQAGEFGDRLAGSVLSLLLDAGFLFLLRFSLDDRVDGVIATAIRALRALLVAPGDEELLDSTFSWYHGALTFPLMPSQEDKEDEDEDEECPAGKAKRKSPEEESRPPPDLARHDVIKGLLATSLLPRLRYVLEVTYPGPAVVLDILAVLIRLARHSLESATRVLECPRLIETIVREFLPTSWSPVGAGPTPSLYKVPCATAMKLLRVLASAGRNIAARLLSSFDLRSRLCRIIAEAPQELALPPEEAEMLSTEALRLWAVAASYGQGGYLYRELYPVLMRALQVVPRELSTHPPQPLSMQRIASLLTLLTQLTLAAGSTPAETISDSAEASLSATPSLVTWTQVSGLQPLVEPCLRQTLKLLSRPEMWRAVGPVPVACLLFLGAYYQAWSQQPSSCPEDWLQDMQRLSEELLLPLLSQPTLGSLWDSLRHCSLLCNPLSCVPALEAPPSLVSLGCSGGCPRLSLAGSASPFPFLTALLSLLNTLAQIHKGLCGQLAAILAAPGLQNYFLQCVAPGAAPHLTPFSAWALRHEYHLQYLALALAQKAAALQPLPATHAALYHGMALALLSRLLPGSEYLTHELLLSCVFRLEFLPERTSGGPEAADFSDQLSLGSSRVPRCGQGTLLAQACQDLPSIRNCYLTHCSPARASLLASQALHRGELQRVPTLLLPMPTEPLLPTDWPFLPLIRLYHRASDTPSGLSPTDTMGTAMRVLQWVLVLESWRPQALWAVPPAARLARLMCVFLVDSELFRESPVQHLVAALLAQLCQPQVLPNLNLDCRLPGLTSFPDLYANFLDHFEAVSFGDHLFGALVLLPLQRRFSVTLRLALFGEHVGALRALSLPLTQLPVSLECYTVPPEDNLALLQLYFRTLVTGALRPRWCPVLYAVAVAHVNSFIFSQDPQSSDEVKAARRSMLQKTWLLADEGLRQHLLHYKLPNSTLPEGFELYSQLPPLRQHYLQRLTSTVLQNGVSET
UniProt Q9BZV1: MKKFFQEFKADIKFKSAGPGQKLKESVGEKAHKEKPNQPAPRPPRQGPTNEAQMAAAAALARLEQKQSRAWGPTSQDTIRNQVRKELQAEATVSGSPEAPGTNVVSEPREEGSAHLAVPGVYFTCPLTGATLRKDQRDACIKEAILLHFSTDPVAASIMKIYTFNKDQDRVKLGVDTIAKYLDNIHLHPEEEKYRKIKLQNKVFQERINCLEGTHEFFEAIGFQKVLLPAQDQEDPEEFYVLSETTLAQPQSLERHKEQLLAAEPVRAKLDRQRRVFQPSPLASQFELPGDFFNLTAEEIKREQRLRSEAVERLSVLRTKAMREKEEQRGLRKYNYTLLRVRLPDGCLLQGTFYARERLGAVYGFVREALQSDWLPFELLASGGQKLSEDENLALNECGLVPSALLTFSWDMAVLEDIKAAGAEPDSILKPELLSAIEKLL
UniProt Q9BUB5: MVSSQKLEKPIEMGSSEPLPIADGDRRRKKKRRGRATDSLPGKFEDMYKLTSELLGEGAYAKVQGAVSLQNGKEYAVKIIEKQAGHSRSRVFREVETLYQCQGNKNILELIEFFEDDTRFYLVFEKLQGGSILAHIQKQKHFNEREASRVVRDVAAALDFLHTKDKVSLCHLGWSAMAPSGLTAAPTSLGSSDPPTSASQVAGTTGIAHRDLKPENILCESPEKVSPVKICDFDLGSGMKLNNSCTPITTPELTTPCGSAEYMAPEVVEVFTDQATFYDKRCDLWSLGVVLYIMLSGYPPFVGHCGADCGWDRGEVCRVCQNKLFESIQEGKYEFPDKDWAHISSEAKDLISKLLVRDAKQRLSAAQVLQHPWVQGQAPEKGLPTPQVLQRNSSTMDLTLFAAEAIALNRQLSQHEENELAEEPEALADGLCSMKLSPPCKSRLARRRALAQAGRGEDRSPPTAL
UniProt Q9BPX3, whole entry, looked up: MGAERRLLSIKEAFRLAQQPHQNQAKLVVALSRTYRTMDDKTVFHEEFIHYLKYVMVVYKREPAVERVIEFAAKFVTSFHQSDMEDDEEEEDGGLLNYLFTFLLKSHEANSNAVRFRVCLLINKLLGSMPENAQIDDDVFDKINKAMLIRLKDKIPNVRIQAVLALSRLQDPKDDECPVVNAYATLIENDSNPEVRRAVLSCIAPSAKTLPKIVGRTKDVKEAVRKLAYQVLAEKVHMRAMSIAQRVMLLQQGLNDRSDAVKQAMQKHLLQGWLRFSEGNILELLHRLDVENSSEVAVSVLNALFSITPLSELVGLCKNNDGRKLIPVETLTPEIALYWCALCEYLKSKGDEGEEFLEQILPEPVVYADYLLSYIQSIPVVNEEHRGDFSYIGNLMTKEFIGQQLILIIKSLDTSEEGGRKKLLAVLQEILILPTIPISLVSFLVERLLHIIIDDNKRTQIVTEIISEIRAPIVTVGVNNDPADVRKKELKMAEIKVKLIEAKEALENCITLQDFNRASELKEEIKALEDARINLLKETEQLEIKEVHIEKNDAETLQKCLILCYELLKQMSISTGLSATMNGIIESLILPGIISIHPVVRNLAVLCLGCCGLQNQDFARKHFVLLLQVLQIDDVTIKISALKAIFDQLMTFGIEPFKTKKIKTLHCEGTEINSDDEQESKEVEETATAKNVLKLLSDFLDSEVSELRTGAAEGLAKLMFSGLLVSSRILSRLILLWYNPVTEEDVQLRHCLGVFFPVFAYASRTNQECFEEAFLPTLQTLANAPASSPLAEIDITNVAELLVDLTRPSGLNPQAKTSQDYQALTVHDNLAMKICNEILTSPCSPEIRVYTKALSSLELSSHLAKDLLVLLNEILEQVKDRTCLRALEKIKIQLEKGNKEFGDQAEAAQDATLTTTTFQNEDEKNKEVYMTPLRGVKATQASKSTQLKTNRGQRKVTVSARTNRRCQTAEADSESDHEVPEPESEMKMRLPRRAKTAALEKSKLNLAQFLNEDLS
UniProt Q9BYW2: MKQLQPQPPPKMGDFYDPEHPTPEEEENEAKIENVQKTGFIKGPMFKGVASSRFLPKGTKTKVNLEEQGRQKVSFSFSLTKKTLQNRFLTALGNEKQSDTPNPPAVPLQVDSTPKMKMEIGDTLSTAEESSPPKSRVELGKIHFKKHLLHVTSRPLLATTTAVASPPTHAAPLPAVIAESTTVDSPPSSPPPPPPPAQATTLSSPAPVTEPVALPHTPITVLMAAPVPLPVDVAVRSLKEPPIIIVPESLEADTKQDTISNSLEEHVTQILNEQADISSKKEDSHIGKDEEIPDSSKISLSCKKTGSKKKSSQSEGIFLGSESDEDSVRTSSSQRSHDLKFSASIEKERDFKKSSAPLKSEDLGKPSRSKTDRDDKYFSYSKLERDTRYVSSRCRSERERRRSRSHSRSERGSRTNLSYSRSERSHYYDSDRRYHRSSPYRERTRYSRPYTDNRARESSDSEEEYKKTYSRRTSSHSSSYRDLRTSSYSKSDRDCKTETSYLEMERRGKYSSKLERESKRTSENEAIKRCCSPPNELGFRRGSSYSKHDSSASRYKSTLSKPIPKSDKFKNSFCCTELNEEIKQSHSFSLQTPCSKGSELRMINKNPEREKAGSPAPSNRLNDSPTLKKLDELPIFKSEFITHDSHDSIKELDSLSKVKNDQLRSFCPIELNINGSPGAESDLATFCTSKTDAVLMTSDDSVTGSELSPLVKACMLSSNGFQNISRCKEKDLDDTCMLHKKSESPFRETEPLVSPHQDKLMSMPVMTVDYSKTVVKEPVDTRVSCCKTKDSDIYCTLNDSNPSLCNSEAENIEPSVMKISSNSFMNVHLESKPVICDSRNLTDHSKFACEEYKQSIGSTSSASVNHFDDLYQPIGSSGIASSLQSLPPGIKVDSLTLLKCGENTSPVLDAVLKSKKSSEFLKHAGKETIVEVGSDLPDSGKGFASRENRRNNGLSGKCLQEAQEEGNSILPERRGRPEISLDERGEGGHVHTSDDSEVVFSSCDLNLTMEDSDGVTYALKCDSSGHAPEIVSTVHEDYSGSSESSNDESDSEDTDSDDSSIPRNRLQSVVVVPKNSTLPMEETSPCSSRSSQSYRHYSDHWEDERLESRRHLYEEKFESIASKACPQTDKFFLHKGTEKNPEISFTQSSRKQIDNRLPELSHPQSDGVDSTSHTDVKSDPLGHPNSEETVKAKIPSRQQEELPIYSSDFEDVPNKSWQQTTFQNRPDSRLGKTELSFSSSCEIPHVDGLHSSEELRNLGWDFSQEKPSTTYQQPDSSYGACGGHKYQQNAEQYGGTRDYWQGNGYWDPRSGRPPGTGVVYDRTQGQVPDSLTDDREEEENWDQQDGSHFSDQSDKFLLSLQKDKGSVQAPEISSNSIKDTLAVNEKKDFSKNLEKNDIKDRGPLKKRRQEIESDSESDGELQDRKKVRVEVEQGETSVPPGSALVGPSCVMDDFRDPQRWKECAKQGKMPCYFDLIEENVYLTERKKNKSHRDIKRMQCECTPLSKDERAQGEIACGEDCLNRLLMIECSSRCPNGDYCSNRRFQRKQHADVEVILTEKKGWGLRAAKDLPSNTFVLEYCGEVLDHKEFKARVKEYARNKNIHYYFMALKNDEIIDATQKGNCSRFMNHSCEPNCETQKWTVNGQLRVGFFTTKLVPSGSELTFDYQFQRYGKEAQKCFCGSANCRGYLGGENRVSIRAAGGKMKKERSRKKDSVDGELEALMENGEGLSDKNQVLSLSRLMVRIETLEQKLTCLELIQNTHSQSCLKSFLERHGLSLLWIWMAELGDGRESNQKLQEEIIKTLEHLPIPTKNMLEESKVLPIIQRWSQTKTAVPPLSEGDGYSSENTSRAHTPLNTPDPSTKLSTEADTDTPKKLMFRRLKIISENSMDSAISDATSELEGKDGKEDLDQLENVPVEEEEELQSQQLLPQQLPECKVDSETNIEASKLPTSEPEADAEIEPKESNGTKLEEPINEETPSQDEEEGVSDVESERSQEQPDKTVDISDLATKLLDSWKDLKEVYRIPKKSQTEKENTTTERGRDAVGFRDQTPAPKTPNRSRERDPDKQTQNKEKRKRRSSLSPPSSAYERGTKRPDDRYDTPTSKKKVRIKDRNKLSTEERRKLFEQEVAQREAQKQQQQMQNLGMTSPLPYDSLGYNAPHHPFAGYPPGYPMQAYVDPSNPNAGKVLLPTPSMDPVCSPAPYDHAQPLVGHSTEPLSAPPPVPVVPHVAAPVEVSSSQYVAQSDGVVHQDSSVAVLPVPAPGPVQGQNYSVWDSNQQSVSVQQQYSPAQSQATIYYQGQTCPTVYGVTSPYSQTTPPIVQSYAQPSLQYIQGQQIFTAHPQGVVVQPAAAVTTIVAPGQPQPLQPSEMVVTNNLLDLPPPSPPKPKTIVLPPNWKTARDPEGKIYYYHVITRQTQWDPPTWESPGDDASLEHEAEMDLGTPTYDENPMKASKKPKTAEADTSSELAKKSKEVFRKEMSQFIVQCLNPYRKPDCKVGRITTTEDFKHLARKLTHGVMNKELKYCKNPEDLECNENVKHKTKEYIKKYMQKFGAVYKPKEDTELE
UniProt Q9BV57: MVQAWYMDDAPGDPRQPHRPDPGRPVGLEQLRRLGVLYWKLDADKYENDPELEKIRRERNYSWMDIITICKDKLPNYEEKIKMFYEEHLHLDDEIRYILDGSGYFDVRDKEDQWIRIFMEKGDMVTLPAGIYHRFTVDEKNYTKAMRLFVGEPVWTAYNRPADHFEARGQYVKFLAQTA

Compound in the test: Nc1ncnc2c1ncn2[C@@H]1O[C@H](COP(=O)(O)OP(=O)(O)OP(=O)(O)O)[C@@H](O)[C@H]1O [adenosine triphosphate]
Kind of test: NP40-soluble protein abundance relative to vehicle (solubility fold change) (ratio); higher = more soluble protein in presence of ATP. As to conditions: concentration: 6mM. The procedure, abridged:
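Each value is a fold change relative to the detergent-processed vehicle, calculated per replicate from vsn-normalised intensities. Jurkat crude lysate received eight concentrations (0.1 to 10 mM) for 10 min at room temperature and 3 min at 37 °C, then was solubilised in 0.8% NP40 with benzonase (60 min, 4 °C). The ultracentrifuged supernatant was TMT-labelled and run by LC-MS/MS in three independent experiments.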
As to DOK1 (UniProt Q99704), the NP40-soluble protein abundance turned out to be 1.03 ± 0.13.
With UniProt Q9BTY7 the figure was 0.989 ± 0.12; with PARK7 (UniProt Q99497), 0.962 ± 0.018.
With UniProt Q99490-2|Q99490 the figure was 0.865 ± 0.05; with RPAP1 (UniProt Q9BWH6), 1.02 ± 0.035.
With BCL7B (UniProt Q9BQE9) the figure was 1.04 ± 0.14; with UniProt Q9BTD8 and related entries, 1.2 ± 0.023; with UniProt Q9BY12 and related entries, 1.26 ± 0.07.
Regarding UBXN6 (UniProt Q9BZV1), the NP40-soluble protein abundance is 0.934 ± 0.047.
With UniProt Q99828 and related entries the figure was 1.06 ± 0.081; with UniProt Q9BUB5 and related entries, 1.01 ± 0.03; with PSMG3 (UniProt Q9BT73), 0.863 ± 0.11.
Take ACBD6 (UniProt Q9BR61): the NP40-soluble protein abundance was 0.999 ± 0.033.
In the case of NCAPG (UniProt Q9BPX3), the NP40-soluble protein abundance amounted to 0.929 ± 0.012.
Turning to UniProt Q99707 and related entries, the NP40-soluble protein abundance came to 0.966 ± 0.049.
With SETD2 (UniProt Q9BYW2) the figure was 1.12 ± 0.053; with TIPIN (UniProt Q9BVW5), 0.953 ± 0.064; with UniProt Q9BXP5-2|Q9BXP5-3|Q9BXP5-4, 1.22 ± 0.048.
On to ARID3A (UniProt Q99856), for which the NP40-soluble protein abundance came to 0.977 ± 0.066.
Take ACAT2 (UniProt Q9BWD1): the NP40-soluble protein abundance was 0.98 ± 0.022.
UniProt Q9BRT2 and related entries: the NP40-soluble protein abundance is 1 ± 0.044.
The figure for PUS3 (UniProt Q9BZE2) is 0.991 ± 0.044.
The figure for TM9SF2 (UniProt Q99805) is 0.96 ± 0.12; for SMAD5 (UniProt Q99717) it is 1.1211 ± 0.00047; for UniProt Q9BTE3 and related entries it is 0.97 ± 0.059.
The figure for ADI1 (UniProt Q9BV57) is 0.936 ± 0.08.
As for THTPA (UniProt Q9BU02), the NP40-soluble protein abundance came out at 0.936 ± 0.091.
The figure for UniProt Q9BT22 and related entries is 0.945 ± 0.11.

The record behind these values is the supplement of paper PMC6411743.
